## Results of single-concentration screens

Protein sequences, listed by entry. Tags and fused reporters are not part of them. Residues count along the entry.
UniProt Q8IDJ8, 1-583: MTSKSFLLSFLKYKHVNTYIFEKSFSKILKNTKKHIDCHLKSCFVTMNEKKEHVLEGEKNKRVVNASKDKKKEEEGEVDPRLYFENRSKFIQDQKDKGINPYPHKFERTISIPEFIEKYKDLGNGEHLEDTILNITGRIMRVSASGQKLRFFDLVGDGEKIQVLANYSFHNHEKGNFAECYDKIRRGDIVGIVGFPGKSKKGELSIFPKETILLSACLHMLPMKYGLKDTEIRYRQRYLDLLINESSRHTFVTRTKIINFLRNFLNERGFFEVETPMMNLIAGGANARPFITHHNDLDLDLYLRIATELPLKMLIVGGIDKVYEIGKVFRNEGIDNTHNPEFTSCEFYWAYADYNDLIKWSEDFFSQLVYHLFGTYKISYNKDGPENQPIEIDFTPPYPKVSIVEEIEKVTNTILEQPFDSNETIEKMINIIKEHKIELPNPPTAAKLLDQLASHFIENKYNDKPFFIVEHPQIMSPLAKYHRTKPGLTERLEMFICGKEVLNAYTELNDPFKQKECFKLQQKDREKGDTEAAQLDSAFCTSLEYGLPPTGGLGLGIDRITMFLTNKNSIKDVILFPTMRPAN
UniProt Q4DA54, 1-478: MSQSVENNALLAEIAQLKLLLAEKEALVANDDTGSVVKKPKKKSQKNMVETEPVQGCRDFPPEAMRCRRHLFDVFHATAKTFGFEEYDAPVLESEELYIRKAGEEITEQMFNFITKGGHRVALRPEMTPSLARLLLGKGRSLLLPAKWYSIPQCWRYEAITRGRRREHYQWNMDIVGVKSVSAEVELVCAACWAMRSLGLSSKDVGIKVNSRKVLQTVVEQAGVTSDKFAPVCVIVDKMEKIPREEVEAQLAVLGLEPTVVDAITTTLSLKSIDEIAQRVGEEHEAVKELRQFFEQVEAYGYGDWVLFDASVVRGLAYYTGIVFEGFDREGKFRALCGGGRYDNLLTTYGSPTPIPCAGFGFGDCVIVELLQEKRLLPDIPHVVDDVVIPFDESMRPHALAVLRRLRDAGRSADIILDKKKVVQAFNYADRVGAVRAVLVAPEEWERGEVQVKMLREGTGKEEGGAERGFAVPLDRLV

Measurements from “University of Dundee, Small-Polar-MMV Screening Library” (2021), ChEMBL document CHEMBL3988442.

Leishmania in macrophages: 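Cell assay of Leishmania donovani living inside macrophages; the read-out is not stated. Concentration: 30 µM. Direction is inferred from retests: higher values go with stronger inhibition. Of about 69,000 compounds tested this way, about 1,000 (1.5%) reached 50% or more in at least one test.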
T. brucei: 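Whole-parasite assay of Trypanosoma brucei over 72 hours; the read-out is not stated. Tested at 30 µM. Direction is inferred from retests: higher values go with stronger inhibition. Values scatter widely below zero; nearly all retest evidence comes from the higher of the two concentrations used. Size under these conditions: about 64,000 compounds, about 940 of them at 50% or above in at least one test.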
Toxoplasma: 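Assay of Toxoplasma gondii numbers, read through their beta-galactosidase reporter with a colour substrate. Concentration: 10 µM. The record gives no direction; the compounds picked for IC50 retests had high values, so higher reads as fewer parasites. Of about 67,000 compounds tested this way, about 260 (0.38%) reached 50% or more in at least one test.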
PfKRS1: 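Enzyme assay of the cytosolic lysyl-tRNA synthetase in 384-well plates, read by luminescence. Target: Lysine-tRNA ligase, Plasmodium falciparum 3D7 (UniProt Q8IDJ8). Tested at 30 µM. Higher reads as stronger inhibition, judged from the few compounds that gave an IC50. Size under these conditions: about 69,000 compounds, about 49 of them at 50% or above in at least one test.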
TcHisRS: 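Enzyme assay of histidyl-tRNA synthetase; the read-out is not stated. Target: Histidine-tRNA ligase, Trypanosoma cruzi CL Brener (UniProt Q4DA54). Tested at 30 µM. Direction is inferred from retests: higher values go with stronger inhibition. About 69,000 compounds were tested under these conditions; 0.045% (about 31) showed 50% or more at least once.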

Each number is a percent effect as filed. The controls that fix the scale are not given in the record; negative values are as filed. Compounds were drawn at random from those tested, without regard to their results. Two or more numbers in one place are separate tests of the same structure; such repeats can differ widely. A dash means the value is not listed here; it may have been measured.

| structure | Leishmania in macrophages | T. brucei | Toxoplasma | PfKRS1 | TcHisRS |
|---|---|---|---|---|---|
| `COc1ccc2c(c1)[C@@H](CCNC(C)=O)CC(C)(C)O2` | 59.99 & -0.336 | -14.03 | 8.164 | 2.449 | 1.13 |
| `c1ccc2c(c1)CC(n1ccnc1-c1cc3n(n1)CCNC3)CO2` (centres unmarked) | 25.25 | - | -23.07 | 3.406 | 3.865 |
| `CCN1CCCC(CNC(=O)CCc2ccc(OC)c(F)c2)C1` (centres unmarked) | 14.61 | -15.25 | 14.63 | 3.493 | 1.724 |
| `CC(C)c1nnsc1CNC(=O)C1CCCN(C(=O)N(C)C)C1` (centres unmarked) | 1.217 | 10.83 | -7.904 | 3.12 | 3.867 |
| `COc1ccc2c(c1)CC(NC(=O)NCc1cccs1)CO2` (centres unmarked) | -5.818 | -20.43 | -5.322 | 7.347 | 0 |
| `COC(=O)Nc1cccc(C(=O)N(C)Cc2cccc(O)c2)c1` | -1.924 | -20.64 | 13.16 | 5.1 | 14 |
| `NS(=O)(=O)c1cccc(CNc2nccc(C(F)(F)F)n2)c1` | 1.779 | -12.54 | 12.07 | 3.268 | 4.36 |
| `O=C(CCSc1ccccc1F)NCc1cccnc1` | 1.251 | 2.17 | 1.477 | 2.519 | 11.67 |
| `O=C(NCc1ccco1)[C@H]1CC[C@@H]2[C@@H](CCN2C2CCC2)O1` | - | - | - | 0.5449 | 8.537 |
| `Cc1ccoc1C(=O)N1C[C@H]2CCC[C@@]2(COCc2ccncc2)C1` | - | - | - | -0.4042 | 7.609 |
| `O=c1c(NCCc2ccc(O)cc2)c(NCc2ccncc2)c1=O` | 40.11 | -9.344 | -12.23 | 3.848 | 4.969 |
| `COc1ccc(CN2C[C@@H](CN(C)C)[C@@H](CO)C2)cc1CN1CCCC1` | 7.971 | -18.08 | -9.186 | 4.57 | 5.102 |
| `O=C(Nc1nc2c(s1)CCC2)NC1CCCC1` | -15.36 | -25.48 | 6.476 | 5.455 | 14 |
| `O=C(O)C(F)(F)F.O=C(O)C(F)(F)F.O=C(O)C(F)(F)F.[H][C@@]12C[C@@H](Oc3cccnc3)CN1CCN(C(=O)c1ccc(C)nc1)C2` | 38.06 | -2.297 | 2.358 | - | - |
| `Cc1nn(C)c(=O)c2nn(-c3ccc(Cl)cc3)c(C)c12` | -0.03044 | 2.874 | 11.46 | 9.404 | 6.186 |
| `Cc1cccc(SC2CCN(Cc3nc(CC4CC4)no3)CC2)c1` | -10.87 | -5.407 | -3.45 | 2.766 | 7.447 |
| `CN(C)c1ccc(CC(=O)N[C@@H]2CCNC[C@H]2O)cc1` | -29.81 | 26.25 | 5.157 | 4.012 | 2.542 |
| `O=C1CC(c2cccc(O)c2)c2sc(C(=O)O)c(-c3ccccc3)c2N1` (centres unmarked) | -2.487 | -17.35 | 3.738 | -9.904 | 3.306 |
| `[H][C@@]12CN(c3ccccc3)C(=O)N1CCN(C1CCC1)C2` | 11.3 | -1.536 | 16.04 | - | - |
| `CCCn1ncc(CN2C[C@@H]3CCCN3C[C@@H]2CCSC)c1C` | - | - | - | 3.353 | 3.784 |
| `O=C(c1ccncc1)N1CCn2c(nnc2-c2ccccc2)C1` | -0.457 | -16.86 | 11.75 | -0.5664 | 7.792 |
| `CCCOc1cc(CNC(=O)Nc2cccc(C(C)=O)c2)ccn1` | 13.5 | 1.786 | 2.18 | -1.409 | 7.182 |
| `O=C(c1cccc(Cl)c1F)N1CCOC2(CNCCOC2)C1` (centres unmarked) | -25.6 | -24.16 | -15.65 | 1.459 | 1.508 |
| `CN(C)CC1CN(CC(=O)N2CCc3ccccc32)CCO1` (centres unmarked) | 0.7976 | -14.08 | -0.2309 | 1.626 | 0.5405 |
| `CC(c1ccco1)N(C(=O)CNc1ccc(C#N)cc1)C1CC1` (centres unmarked) | -23.24 | -89.08 | 4.637 | 4.956 | 5.419 |
| `Cc1ccc(S(=O)(=O)Nc2ccc(N3CCSCC3)c(C(=O)O)c2)s1` | 16.35 | -24.08 | -0.1248 | 8.679 | 14.89 |
| `CC(=O)N(C)Cc1cccc(NC(=O)CCCc2nc(C(C)C)no2)c1` | 6.815 | -22.45 | 12.43 | 1.914 | 4.867 |
| `CCOCCN1CCN([C@@H]2c3ccccc3C3(CCNCC3)[C@H]2O)CC1` | 2.901 | -54.14 | 29.97 | -3.066 | 6.438 |
| `CN(Cc1nccn1C)c1nccc(N2CCCC(O)C2)n1` (centres unmarked) | -9.67 | -55.98 | -9.831 | 2.836 | 2.41 |
| `Cc1ccccc1-n1c(C)cc(C(=O)N2CCn3c(C)nnc3C2)c1C` | 25.8 | 18.26 | -29.44 | 1.389 | 4.624 |
| `COCC(=O)N1CCOC2(CCCN(c3cnccn3)C2)C1.O=C(O)C(F)(F)F` (centres unmarked) | 9.982 | -18.63 | 11.73 | - | - |
| `CCOC(=O)[C@@H]1[C@@H](c2ccccc2)CN2CCN(C(=O)N(C)C)C[C@H]12` | - | - | - | 2.976 | -1.124 |
| `O=C(O)C(F)(F)F.O=S(=O)(C1CC1)N1CC[C@]2(C[C@@H](Oc3ccccn3)CO2)C1` | 19.2 | 4.827 | 1.552 | - | - |
| `Cl.Nc1ncc(-c2csc(NC(=O)C[C@H]3COCCN3)n2)cn1` | 7.959 & 7.191 | -10.02 | -27.88 | - | - |
| `CCC1c2ccsc2CCN1C(=O)NCc1cccnc1N(C)C` (centres unmarked) | -20.26 | -2.863 | -43.58 | -0.6358 | 2.639 |
| `Cc1cc(CN(C)C(=O)NCC2CCS(=O)(=O)C2)no1` (centres unmarked) | 19.49 | 14.09 | -0.9265 | 9.208 | -1.681 |
| `Cc1cc(N2CCC(n3cc(CN4CCC[C@@H]4CO)nn3)CC2)ccn1` | 25.28 | -11.3 | -1.614 | -0.3823 | 3.571 |
| `CN1CCC(Nc2ccc(Cl)cc2OCC(F)(F)F)C1=O` (centres unmarked) | 0.849 | 4.754 | 3.442 | 2.147 | 7.182 |
| `O=C(O)C(F)(F)F.[H][C@@]12CN(Cc3cccs3)CCC[C@]1(C(=O)OCC)CN(C(C)=O)C2` | 38.14 | -10.51 | 6.551 | - | - |
| `CC(C(=O)NC1CCCC1)S(=O)(=O)Cc1noc(C(C)(C)C)n1` (centres unmarked) | -24.98 | -66.27 | -0.2803 | 7.736 | 8.247 |
| `CCOc1ccc(N(CCC#N)C(=O)c2ccc(OC)nc2)cc1` | 6.16 | -64.64 | 0 | 10.87 | 5.419 |

Some entries from above, unchanged:

| structure | Leishmania in macrophages | T. brucei | Toxoplasma | PfKRS1 | TcHisRS |
|---|---|---|---|---|---|
| `Cc1ccoc1C(=O)N1C[C@H]2CCC[C@@]2(COCc2ccncc2)C1` | - | - | - | -0.4042 | 7.609 |
| `Cc1nn(C)c(=O)c2nn(-c3ccc(Cl)cc3)c(C)c12` | -0.03044 | 2.874 | 11.46 | 9.404 | 6.186 |
| `Cl.Nc1ncc(-c2csc(NC(=O)C[C@H]3COCCN3)n2)cn1` | 7.959 & 7.191 | -10.02 | -27.88 | - | - |
| `CN(Cc1nccn1C)c1nccc(N2CCCC(O)C2)n1` (centres unmarked) | -9.67 | -55.98 | -9.831 | 2.836 | 2.41 |